According to paper PMC8292509:
These are yes or no findings as the source states them, for the method shown. Binding seen in cells or lysates may run through a third protein. Some results given as binding are weak or reduced against the parent protein; the word gives no strength.

Sequences of proteins named here, by UniProt entry; tags and fusion partners are left off.
UniProt A5A3E0: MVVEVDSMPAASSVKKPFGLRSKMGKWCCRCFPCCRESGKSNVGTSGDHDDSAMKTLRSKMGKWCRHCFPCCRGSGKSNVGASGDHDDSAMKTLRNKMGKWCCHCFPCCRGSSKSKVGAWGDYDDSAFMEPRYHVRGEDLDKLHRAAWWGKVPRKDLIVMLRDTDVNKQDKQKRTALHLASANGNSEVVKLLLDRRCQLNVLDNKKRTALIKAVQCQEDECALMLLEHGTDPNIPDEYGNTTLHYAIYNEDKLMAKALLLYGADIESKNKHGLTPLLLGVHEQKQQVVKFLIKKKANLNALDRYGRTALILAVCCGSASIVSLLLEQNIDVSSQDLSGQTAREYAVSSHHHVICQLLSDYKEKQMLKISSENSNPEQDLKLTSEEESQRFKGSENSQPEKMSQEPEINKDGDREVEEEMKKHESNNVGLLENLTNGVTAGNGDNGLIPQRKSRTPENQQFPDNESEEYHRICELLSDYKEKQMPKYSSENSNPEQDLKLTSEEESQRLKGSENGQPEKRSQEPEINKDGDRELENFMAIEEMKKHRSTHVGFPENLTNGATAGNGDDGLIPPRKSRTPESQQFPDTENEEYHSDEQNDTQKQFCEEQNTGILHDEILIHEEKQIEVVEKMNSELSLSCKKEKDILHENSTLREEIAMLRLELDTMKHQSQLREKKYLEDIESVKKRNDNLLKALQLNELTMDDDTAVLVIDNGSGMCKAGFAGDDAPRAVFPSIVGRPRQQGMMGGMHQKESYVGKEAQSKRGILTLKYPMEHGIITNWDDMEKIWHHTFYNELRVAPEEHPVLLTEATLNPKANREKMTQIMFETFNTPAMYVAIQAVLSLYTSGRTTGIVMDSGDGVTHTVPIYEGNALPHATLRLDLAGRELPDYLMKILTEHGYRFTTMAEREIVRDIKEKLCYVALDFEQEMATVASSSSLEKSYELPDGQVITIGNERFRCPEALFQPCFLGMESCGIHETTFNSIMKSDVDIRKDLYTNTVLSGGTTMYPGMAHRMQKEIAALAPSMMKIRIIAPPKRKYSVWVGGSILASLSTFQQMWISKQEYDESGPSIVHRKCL
UniProt P50990: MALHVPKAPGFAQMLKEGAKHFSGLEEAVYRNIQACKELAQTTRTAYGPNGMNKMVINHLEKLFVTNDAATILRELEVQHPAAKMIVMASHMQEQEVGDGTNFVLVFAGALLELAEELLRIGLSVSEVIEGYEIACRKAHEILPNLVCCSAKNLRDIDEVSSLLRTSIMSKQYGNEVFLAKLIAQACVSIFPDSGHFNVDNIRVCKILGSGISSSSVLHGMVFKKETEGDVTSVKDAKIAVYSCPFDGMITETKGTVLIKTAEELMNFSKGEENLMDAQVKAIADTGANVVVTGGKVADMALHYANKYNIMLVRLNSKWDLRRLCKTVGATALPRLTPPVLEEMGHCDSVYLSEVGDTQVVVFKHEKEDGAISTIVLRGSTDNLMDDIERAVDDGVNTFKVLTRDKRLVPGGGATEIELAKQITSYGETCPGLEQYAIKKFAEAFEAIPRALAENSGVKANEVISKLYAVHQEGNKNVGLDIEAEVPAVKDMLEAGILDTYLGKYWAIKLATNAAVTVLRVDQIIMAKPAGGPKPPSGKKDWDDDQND

Target: POTE ankyrin domain family member F (POTEF) tagged with DDDDK, drug-inducible in HGrC1 cells (human) (UniProt A5A3E0)
Test: co-IP; lysate of CuO-POTEF-Flag HGrC1 cells cultured 2 days with cumate; IP with the DDDDK-tagged Protein Magnetic Purification Kit (anti-DDDDK); western blot with anti-TCP-1α and anti-TCP-1θ

binding: binds
Substance: TCP-1θ, a subunit of chaperonin containing TCP-1 complex (CCT) (from UniProt P50990 1-548)
